Source: patent US7511167B2, “Two-photon dyes for real-time imaging of lipid rafts” (Korea University Industry and Academy Cooperation Foundation, priority 2006, dated 2009)

Tests used:
[1] = Two-photon fluorescence generalized polarization (GP) imaging of GUVs (Test Example 5); details: for center GP value, high GP peak of bimodal Gaussian fit / center GP value, low GP peak of bimodal Gaussian fit: DOPC/sphingo/chol GUVs
Experimental: (§1) A GP image is obtained using a fluorescent dye by the following procedure. First, cells or model membranes are stained with a fluorescent dye. The intensities of fluorescence emitted from the stained cells or model membranes are measured at 400-460 nm and 470-530 nm. A GP value is calculated by Equation 2: […]
wherein I(400-460) represents the fluorescence intensity at a wavelength of 400 to 460 nm, I(470-530) represents the fluorescence intensity at a wavelength of 470 to 530 nm, and G is the sensitive correction factor in the two wavelength ranges.
The cells or model membranes are colored depending on the obtained GP value to obtain a final GP image.
As the GP value approximates −1, the cells or model membranes are in a hydrophilic environment, which is colored violet or blue. As the GP value approximates 1, the cells or model membranes are in a hydrophobic environment, which is colored red or orange.
The three kinds of GUVs were stained with Laurdan prepared in Comparative Example 1 and TPD1 prepared in Example 1. GP values were calculated in the equatorial sections of the GUVs and converted into images. Specifically, FIG. 6a through 6c are fluorescence GP images of the DOPC GUVs, DOPC/Sphingo/Chol GUVs and DPPC GUVs stained with Laurdan prepared in Comparative Example 1, respectively, and FIG. 6d through 6f are fluorescence GP images of the DOPC GUVs, DOPC/Sphingo/Chol GUVs and DPPC GUVs stained with TPD1 prepared in Example 1, respectively. […] Referring to FIG. 7, the GP distribution curves for the DPPC GUVs are narrow and the center GP values are 0.54 for Laurdan and 0.41 for TPD1, respectively. The center GP values in the DOPC GUVs are 0.044 for Laurdan and −0.35 for TPD1, respectively. The center GP values in the DOPC GUVs are generally negative because the DOPC GUVs is highly hydrophilic. However, the reason why the center GP value for Laurdan is positive is because Laurdan probably aggregated in the fluid membranes. […] Similar results could also be found in the GP distribution curves of the DOPC/sphingo/chol GUVs. Specifically, the GP values in the GUVs stained with Laurdan were slightly higher and the GP distribution curves of the GUVs stained with TPD1 were more symmetrical. When the respective distribution curves were converted into bimodal distribution curves by Gaussian Curve Fitting, the center GP values were 0.09 and 0.36 for the Laurdan-stained GUVs and −0.14 and 0.18 for the TPD1-stained GUVs, respectively. The two peaks for the TPD1-stained GUVs are symmetrical with respect to about zero and the respective GP values are substantially symmetrical. […] Also, the low GP distribution curve is much broader than the high one.
(§2) In the present invention, one- and two-photon fluorescence images were obtained using spectral confocal multiphoton microscopes (TCS SP2, Leica). An argon laser (488 nm) was used as the excitation source for one-photon fluorescence microscopy, and a mode-locked titanium-sapphire laser (780 nm) was used as the excitation source for two-photon fluorescence microscopy. Calculation of the GP values was performed using a home-made program based on the visual C++ format.

A431 cells = assay: GP imaging tests in cells (Test Example 6); format: cell-based
Experimental: as §1, §2
Intact A431 cells and A431 cells treated with methyl-β-cyclodextrin (MβCD), a drug removing cholesterol from plasma membranes, as samples were prepared. The intact A431 cells and the samples were stained with the two-photon dyes prepared in Example 1 and Comparative Example 1, and their images were obtained by two-photon fluorescence microscopy. The respective images were converted into GP images and the GP distribution curves were plotted. MβCD is known to destroy lipid rafts of cell membranes by removing cholesterol. In principle, the peak in the low GP distribution curve representing hydrophilicity should be unaltered while the peak in the high GP distribution curve representing hydrophobicity should disappear upon treatment of the cell membranes with MβCD. […] In contrast, the images of the TPD1-stained cells are brighter and more uniform than those of the Laurdan-stained cells. […] The hydrophobic domains (lipid rafts) are visualized by red fluorescence, and the hydrophilic domains (phospholipids) are visualized by blue fluorescence. […] From the image obtained after treatment with MβCD, it can be confirmed that the domains (lipid rafts) visualized by red fluorescence before treatment with MβCD completely disappeared. […]

[2] = Photoselection tests in giant unilamellar vesicles (Test Example 4); details: DOPC GUVs, polarized two-photon fluorescence
Experimental: Two-photon fluorescence depending on the angle of polarize light provides information about the relative orientation of the two-photon markers present in lipid bilayers. Giant unilamellar vesicles (GUVs) composed of DOPO, DOPC/Sphingo/Chol and DPPC were prepared and stained with Laurdan prepared in Comparative Example 1 and TPD1 prepared in Example 1. The distributions of fluorescence emitted from the stained GUVs by polarization were examined. The results are shown in FIGS. 5a, 5b, 5c, 5e, 5f and 5g. FIGS. 5a, 5b and 5c are photographs showing the distributions of fluorescence emitted from the DOPC GUVs, DOPC/Sphingo/Chol GUVs and DPPC GUVs stained with Laurdan prepared in Comparative Example 1, respectively. FIGS. 5e, 5f and 5g are photographs showing the distributions of fluorescence emitted from the DOPC GUVs, DOPC/Sphingo/Chol GUVs and DPPC GUVs stained with TPD1 prepared in Example 1, respectively. […] In contrast, the fluorescence emitted from the TPD1-stained DOPC GUVs was very weak in areas perpendicular to the polarization but was strong in the other areas (FIG. 5e). […] In addition, the two-photon dye of the present invention was confirmed to be photoselective even in the DOPC GUVs and homogeneously stain the DOPC GUVs. FIGS. 5d and 5h are schematic diagrams illustrating the locations of the two-photon markers present in the lipid bilayers. […]

| SMILES | center GP value ([1]; DOPC GUVs) | center GP value, high GP peak of bimodal Gaussian fit [1] | center GP value, low GP peak of bimodal Gaussian fit [1] | center GP value ([1]; DPPC GUVs) | center GP value of the peak in the high GP distribution curve (A431 cells; A431 cells before MβCD treatment) | center GP value of the peak in the high GP distribution curve (A431 cells; A431 cells treated with MβCD) | orientation of the dye molecules in the lipid bilayer [2] | size of the peak in the high GP distribution curve after MβCD (A431 cells; A431 cells treated with MβCD) |
| --- | --- | --- | --- | --- | --- | --- | --- | --- |
| CCCCCCCCCCCC(=O)c1ccc2cc(N(C)C)ccc2c1 [Laurdan, reference compound] | 0.044 | 0.36 | 0.09 | 0.54 | 0.49 | 0.51 | randomly oriented |  |
| CCCCCCCCCCCC(=O)c1ccc2cc(N(C)CC(=O)O)ccc2c1 [TPD1] | −0.35 | 0.18 | −0.14 | 0.41 |  |  | located parallel to the fatty acid tails | markedly decreased |
